Test results: paper doi:10.1101/411223
For at least one entry, the source does not settle the construct or the ends of the probe. For part of these data: A negative result means that nothing was seen under these conditions. For part of these data: The comparison behind a weaker result is the experiment's own reference, which may not be listed here.

Sequences of proteins named here, by UniProt entry; tags and fusion partners are left off. Residues count along the entry.
UniProt P13393, 61-240: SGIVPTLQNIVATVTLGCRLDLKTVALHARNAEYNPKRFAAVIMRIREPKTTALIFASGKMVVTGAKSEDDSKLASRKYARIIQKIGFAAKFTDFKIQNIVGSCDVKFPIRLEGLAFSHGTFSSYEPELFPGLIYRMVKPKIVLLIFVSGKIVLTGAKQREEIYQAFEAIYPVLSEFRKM

Experiments:
[1] = tested on: yTBP (61-240) + TFIIA; test: EMSA
[2] = biological target: yTBP (61-240) (Saccharomyces cerevisiae) (UniProt P13393); test: EMSA; conditions: residues 61-240

“TGTATGTATATAAAAC (double strand) [FAM TATA-box dsDNA]”: binds ([1]; 100 nM yTBP and DNA, dose-dependent supershift with TFIIA, ternary complex); binds ([1]; with Kap114p (Δ347-371) up to 800 nM, supershift still observed); binds ([1]; with Kap114p (Δ899-956) up to 800 nM, supershift still observed). “TGTATGTATATAAAAC (double strand) [FAM TATA-box dsDNA]”: binds more weakly ([1]; with increasing Kap114p, supershift dramatically reduced); binds ([2]; 100 nM DNA, yTBP 10-400 nM); no binding ([2]; yTBP 100 nM with Kap114p >100 nM, shift disappears).
